Where a chain is given by its changes, count along the chain named. Results are given in words; binding and its absence hold for the method and conditions named. Some entries that bind do so weakly or less than the wild type.
Molecular target: integrin αvβ3 receptor (UniProt P06756)
Assay: ELISA on αvβ3 integrin

Amino acid sequences for entries named in this document (tags omitted). A change or cut given only in a name is not applied to a line headed by its entry.
UniProt P06756: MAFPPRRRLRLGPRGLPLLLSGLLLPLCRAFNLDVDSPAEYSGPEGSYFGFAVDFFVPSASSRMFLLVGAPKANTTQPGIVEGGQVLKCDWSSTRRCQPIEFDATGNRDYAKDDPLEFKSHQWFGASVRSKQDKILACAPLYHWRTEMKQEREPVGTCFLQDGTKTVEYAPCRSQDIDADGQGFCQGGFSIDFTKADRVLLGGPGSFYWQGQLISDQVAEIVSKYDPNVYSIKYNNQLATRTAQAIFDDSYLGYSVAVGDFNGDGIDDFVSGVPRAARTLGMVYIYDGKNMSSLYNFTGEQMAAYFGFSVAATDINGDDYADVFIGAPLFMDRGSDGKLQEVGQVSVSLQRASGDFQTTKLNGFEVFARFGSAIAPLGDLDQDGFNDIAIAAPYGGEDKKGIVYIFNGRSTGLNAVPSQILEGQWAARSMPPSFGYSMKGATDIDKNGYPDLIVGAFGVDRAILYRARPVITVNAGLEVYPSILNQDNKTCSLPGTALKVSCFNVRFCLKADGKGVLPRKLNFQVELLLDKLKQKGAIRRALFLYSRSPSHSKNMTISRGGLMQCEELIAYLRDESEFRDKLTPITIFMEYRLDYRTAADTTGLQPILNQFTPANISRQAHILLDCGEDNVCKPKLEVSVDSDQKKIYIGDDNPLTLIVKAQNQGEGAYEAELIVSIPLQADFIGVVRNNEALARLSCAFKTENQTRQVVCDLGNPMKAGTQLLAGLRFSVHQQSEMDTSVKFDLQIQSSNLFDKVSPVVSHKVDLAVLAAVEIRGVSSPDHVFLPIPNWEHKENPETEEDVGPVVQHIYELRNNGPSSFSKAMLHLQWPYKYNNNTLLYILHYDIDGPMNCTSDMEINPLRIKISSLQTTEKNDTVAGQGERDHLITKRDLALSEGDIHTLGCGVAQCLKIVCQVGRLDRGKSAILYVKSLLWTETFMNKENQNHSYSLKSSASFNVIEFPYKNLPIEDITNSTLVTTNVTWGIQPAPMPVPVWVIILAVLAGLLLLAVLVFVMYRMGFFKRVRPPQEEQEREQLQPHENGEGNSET

B1: RGD4C-EcCD_WT (protein)
chain: MGCDCRGDCFCMSNNALQTIINARLPGEEGLWQIHLQDGKISAIDAQSGVMPITENSLDAEQGLVIPPFVEPHIHLDTTQTAGQPNWNQSGTLFEGIERWAERKALLTHDDVKQRAWQTLKWQIANGIQHVRTHVDVSDATLTALKAMLEVKQEVAPWIDLQIVAFPQEGILSYPNGEALLEEALRLRADVVGAIPHFEFTREYGVESLHKTFALAQKYDRLIDVHCDEIDDEQSRFVETVAALAHHEGMGARVTASHTTAMHSYNGAYTSRLFRLLKMSGINFVANPLVNIHLQGRFDTYPKRRGITRVKEMLESGINVCFGHDDVFDPWYPLGTANMLQVLHMGLHVCQLMGYGQINDGLNLITHHSARTLNLQDYGIAAGNSANLIILPAENGFDALRRQVPVRYSVRGGKVIASTQPAQTTVYLEQPEAIDYKRLEHHHHHH
  binding: binds

B2: RGD4C-EcCD_D314A (protein)
chain: B1 chain with D326A
  binding: binds
